Results are given in words; binding and its absence hold for the method and conditions named. Binding seen in cells or lysates may run through a third protein. A result given as binding can be weak or reduced; the word gives no strength. Sequences can lack the tags named with a protein.
Target: T1, Flag-LKB1 (FL) (UniProt Q15831)
T1 sequence: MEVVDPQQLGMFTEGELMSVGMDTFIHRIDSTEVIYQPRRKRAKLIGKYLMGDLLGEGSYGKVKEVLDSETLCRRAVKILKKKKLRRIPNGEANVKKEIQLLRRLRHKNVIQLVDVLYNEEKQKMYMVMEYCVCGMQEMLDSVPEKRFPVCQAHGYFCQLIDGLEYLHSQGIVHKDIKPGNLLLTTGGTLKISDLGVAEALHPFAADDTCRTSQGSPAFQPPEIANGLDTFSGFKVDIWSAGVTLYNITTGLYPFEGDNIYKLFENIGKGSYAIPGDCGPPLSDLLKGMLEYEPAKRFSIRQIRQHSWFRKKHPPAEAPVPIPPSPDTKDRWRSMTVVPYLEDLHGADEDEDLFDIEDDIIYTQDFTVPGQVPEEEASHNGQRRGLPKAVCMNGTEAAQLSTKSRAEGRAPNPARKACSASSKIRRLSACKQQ
Experiment: co-IP; transfected 293T cells lysed in RIPA buffer (50 mM Tris-HCl pH 7.6, 150 mM NaCl, 1 mM EDTA, 1% NP-40); Flag-tagged bait precipitated with anti-Flag M2 Affinity Gel at 4 °C overnight; washed three times with PBST; western blot

Q: Which binding does the source give for FBXO22ΔF (domain or fragment) here?
A: Its binding is “binds”.

From paper PMC6584689
